Results deposited as PubChem BioAssay AID493246 (Drosophila RNAi Screening Center, 2011).
Assay: 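Genes fly cells need to grow and stay alive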 (primary screen). System: Drosophila Kc and S2R+ cells. Reagent: long dsRNA against Drosophila genes. Measured: 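Raw, unnormalised count of remaining cells in each well; per-plate z-scores of cell number underlie the calls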. Reading the numbers: Kc cell number and S2R+ cell number: higher = more cells remaining. Hit rule: 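Counted as a hit if cell number falls by a z-score of at least 3 within its plate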.
In all, the deposit lists about 21,000 reagents; shown is an unselected part of those with a known target gene and a result. Over the whole deposit, 429 (2%) are marked active. 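Values are raw and not normalised between plates; calls rest on per-plate z-scores that were not deposited.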 A number with no mark means an inactive call. No sequences are given here. The record does not give: the amount of reagent, the time to read-out.

{"Gene":"CG33290","amplicon":"DRSC11493","Kc cell number, rep 1":1.29e6,"Kc cell number, rep 2":1.64e6,"S2R+ cell number, rep 1":1.15e6,"S2R+ cell number, rep 2":1.42e6}
{"Gene":"CG11598","amplicon":"DRSC14331","Kc cell number, rep 1":1.57e6,"Kc cell number, rep 2":1.66e6,"S2R+ cell number, rep 1":1.48e6,"S2R+ cell number, rep 2":1.61e6}
{"Gene":"CG3803","amplicon":"DRSC04420","Kc cell number, rep 1":1.66e6,"Kc cell number, rep 2":1.64e6,"S2R+ cell number, rep 1":1.31e6,"S2R+ cell number, rep 2":1.43e6}
{"Gene":"Iris","amplicon":"DRSC00663","Kc cell number, rep 1":1.30e6,"Kc cell number, rep 2":1.35e6,"S2R+ cell number, rep 1":1.07e6,"S2R+ cell number, rep 2":1.03e6}
{"Gene":"Ugt37C1 (UDP-glycosyltransferase family 37 member C1)","amplicon":"DRSC07416","Kc cell number, rep 1":1.61e6,"Kc cell number, rep 2":1.62e6,"S2R+ cell number, rep 1":1.17e6,"S2R+ cell number, rep 2":1.33e6}

2 neighbouring records from above, quoted:
{"Gene":"CG11598","amplicon":"DRSC14331","Kc cell number, rep 1":1.57e6,"Kc cell number, rep 2":1.66e6,"S2R+ cell number, rep 1":1.48e6,"S2R+ cell number, rep 2":1.61e6}
{"Gene":"CG3803","amplicon":"DRSC04420","Kc cell number, rep 1":1.66e6,"Kc cell number, rep 2":1.64e6,"S2R+ cell number, rep 1":1.31e6,"S2R+ cell number, rep 2":1.43e6}

The results go on.
{"Gene":"rdo (reduced ocelli)","amplicon":"DRSC02452","Kc cell number, rep 1":1.28e6,"Kc cell number, rep 2":1.37e6,"S2R+ cell number, rep 1":1.23e6,"S2R+ cell number, rep 2":1.24e6}
{"Gene":"mys (myospheroid)","amplicon":"DRSC18799","Kc cell number, rep 1":1.55e6,"Kc cell number, rep 2":1.50e6,"S2R+ cell number, rep 1":1.06e6,"S2R+ cell number, rep 2":1.22e6}
{"Gene":"Fs(2)Ket (Female sterile (2) Ketel)","amplicon":"DRSC03328","Kc cell number, rep 1":"6.62e5 (active)","Kc cell number, rep 2":8.65e5,"S2R+ cell number, rep 1":5.59e5,"S2R+ cell number, rep 2":5.99e5}
{"Gene":"RpL11 (Ribosomal protein L11)","amplicon":"DRSC07537","Kc cell number, rep 1":"8.29e5 (active)","Kc cell number, rep 2":1.00e6,"S2R+ cell number, rep 1":5.98e5,"S2R+ cell number, rep 2":6.65e5}
{"Gene":"CG33483","amplicon":"DRSC14019","Kc cell number, rep 1":1.14e6,"Kc cell number, rep 2":1.53e6,"S2R+ cell number, rep 1":1.08e6,"S2R+ cell number, rep 2":1.13e6}
{"Gene":"CG14135","amplicon":"DRSC10140","Kc cell number, rep 1":1.38e6,"Kc cell number, rep 2":1.83e6,"S2R+ cell number, rep 1":1.21e6,"S2R+ cell number, rep 2":1.33e6}
{"Gene":"CG12825","amplicon":"DRSC06174","Kc cell number, rep 1":1.48e6,"Kc cell number, rep 2":1.71e6,"S2R+ cell number, rep 1":1.23e6,"S2R+ cell number, rep 2":1.39e6}
